# Percent effect of library compounds

The values are deposited in ChEMBL (CHEMBL3988442, “University of Dundee, Small-Polar-MMV Screening Library” (2021)).

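Phenotypic screen: M. tuberculosis growth, cholesterol and DPPC medium, 4 days; the read-out is not stated. Tested at 50 µM. Direction is inferred from retests: higher values go with more growth inhibition. Size under these conditions: about 69,000 compounds, about 370 of them at 50% or above in at least one test.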

Results are given as percent effect. The record does not define 0% and 100%; most values in the screen are far below 50% and negative numbers occur (in some assays of this library far below -100). The compounds are a random part of those screened. Two or more numbers in one place are separate tests of the same structure; such repeats can differ widely.

compound,percent effect
c1ccc(-c2nc(CN3CCCC(Cn4cncn4)C3)co2)cc1 (stereo not shown),-19.55
O=C(O)C(F)(F)F.O=C(O)C(F)(F)F.O=C(O)C(F)(F)F.c1ccc(N2CC3(CCN(Cc4cccnc4)C3)C2)nc1,8.5
COc1cc(CNC(=O)c2cc(Cl)ccc2F)ccn1,0.3892
Cc1ccc(-n2nnc(C(=O)NC(C)C)c2C2CC2)cc1,8.505
CNc1snc(C)c1C(=O)N1CCCC(n2cccn2)C1 (stereo not shown),4.022
CCc1ccc(NC(=O)c2ncc(C(N)=O)cc2Cl)cc1F,10.96
Cc1cc(NCCC(=O)NC2CCS(=O)(=O)C2)nc(-c2ccncc2)n1 (stereo not shown),11.36
Cc1ccc(CN(CC(=O)N2CCOC(C)C2)C2CC2)cc1 (stereo not shown),-9.24
CNc1cccc(C2CCCN(C(=O)c3ccncc3)C2)n1 (stereo not shown),-0.4759
Cc1ccnc(N2CCN(Cc3ccccc3)CC(O)C2)c1 (stereo not shown),17.82
CCCc1nc(Nc2cccc(C(N)=O)c2)c2c(n1)c(C)nn2CC,3.059
CC(C)NC(=O)NCCn1cnc(C2CCCC2)cc1=O,-8.163
Cc1cc(C)c(CNC(=O)NCC(O)c2ccccc2)c(=O)[nH]1 (stereo not shown),-5.563
c1ccc(Cn2ccnc2CN2CCCC2c2noc(C3CC3)n2)cc1 (stereo not shown),-32.7
Cc1cc(CN2CCCn3nc(CCC(=O)O)cc3C2)ccc1F,-17.09 and -10.36
COc1c(CNCc2ccc(C(=O)N(C)C(C)C)cc2)c(C)nn1C,-10.33
CCN1CC(C(=O)NCc2cccnc2-n2cccn2)CC1=O (stereo not shown),1.767
CCOc1cc(C)nc(N2CCN(C(=O)Cn3cc(C)cn3)CC2)n1,0.9233
CN(C)C(=O)c1c[nH]nc1C1CCN(S(=O)(=O)c2ccc(Cl)cc2)CC1,-15.61
COCc1noc(-c2nn(-c3ccc(F)cc3)c3c2CCC3)n1,24.92
O=C(NCc1nncn1C1CC1)Nc1ccc(OC2CCC2)c(F)c1,10.86 and 0.2694
CCn1cnnc1C1CCN(C(=O)CCCOc2ccccc2)CC1,-1.416
CCOc1ncccc1NC(=O)C1CCS(=O)(=O)C1 (stereo not shown),-1.768
CNc1cc(C)nc(N2C[C@H](C3CC3)[C@@H](N)C2)n1,5.037
CC(=O)c1cc(Br)cc(F)c1OCC(=O)NC(C)C,-5.143
CC(C)n1nc(CN2CCOCC2)c2c1CN(Cc1ccsc1)C2.O=C(O)C(F)(F)F.O=C(O)C(F)(F)F,-33.86
COCC(=O)NC1CC2(CCN(CCF)CC2)Oc2ccccc21.O=C(O)C(F)(F)F (stereo not shown),17.42
C[S+]([O-])c1cccc(NC(=O)N(CCC#N)Cc2ccccn2)c1 (stereo not shown),9.612
CC(=O)N1CCN(Cc2ccc3c(c2)OCCO3)CC(O)C1 (stereo not shown),23.69
CCCn1nccc1-c1cc(C2CCN(S(C)(=O)=O)CC2)nc(C)n1,-3.675
O=C1CN(CC2CC2)Cc2nc(NCCc3ccccn3)sc21,-29.49
Cc1csc(C2CCCN(C(=O)c3cnc4n[nH]c(C)c4c3)C2)n1 (stereo not shown),-19.15
CC1(C)COCCN1C(=O)c1ccc(Cn2cncn2)cc1,-6.096
O=C(Cn1c(=O)n(Cc2ccco2)c2ncccc21)NC1CCCC1,6.523
Cc1ccc(CCNC(=O)Nc2cc(C(F)(F)F)c[nH]c2=O)o1,10.53
CCOCC(O)CN1CCN(C(=O)c2cc(Cl)ccc2F)CC1 (stereo not shown),-11.4
I.c1ccc(Sc2ccc3c(c2)OCO3)c(CNC2=NCCN2)c1,1.744
CC(=O)N(Cc1ncc(C)o1)C1CCN(Cc2cnc(C)s2)C1 (stereo not shown),-36.82
Cc1ccc(CN2Cc3ccccc3O[C@]3(CC[C@H](CO)CC3)C2)s1.Cl,2.923
O=C(O)C(F)(F)F.O=C(c1ccccn1)N1CCCC2(CCN(c3ccsc3)C2=O)C1 (stereo not shown),-8.338
CCN1CCOCC2(C1)CN(C(=O)c1c(C)noc1C)CCO2 (stereo not shown),6.95
Cc1nn(C)c(N2CCOCC2)c1CNC1CCN(C2CC2)CC1,3.212
CCc1nc(C2CCCN2C(=O)c2ccc3c(c2)nc(C)n3C)no1 (stereo not shown),0.9755
CCC[C@H]1CN(Cc2ccc(N(C)C)nc2)C[C@@H]1NC(=O)CO,8.341 and -1.682
Cc1nc(C)n(CC2CCCCN2CC(=O)Nc2ccncc2)n1 (stereo not shown),-35.25
CCc1nc(C)c(C(=O)NCCNc2ncnc3sccc23)s1,-9.52
CCN1CCC(CC(=O)NCCc2nc(C)cc(C)n2)CC1,-1.493
O=C(CCc1cccc(F)c1F)N1CCN(Cc2ccco2)CC1,38.13
Cc1nc2c(c(NC(C)c3nnn[nH]3)n1)Cc1ccccc1OC2 (stereo not shown),-5.657
CN(C)C(=O)N1CCN(CCn2nc3ccccn3c2=O)CC1,-17.29
Cc1cccc(N2CC3(CCN(Cc4nccn4C)C3)CC2=O)c1.O=C(O)C(F)(F)F (stereo not shown),-20.82 and -8.095
O=S(=O)(c1ccccc1)N1CCC[C@]2(C[C@@H](OCC3CC3)CO2)C1,-21.23
[H][C@@]12CN(C(=O)c3cnc(C)cn3)C[C@]1([H])C(=O)N(Cc1cccc(F)c1)C2,-12.07
CC(=O)c1cc(CC(=O)N2CCCC2c2nc(C(C)C)no2)cs1 (stereo not shown),-1.815 and 4.473
[H][C@@]12C[C@H](O)CCN1C(=O)CN(CCSc1ccccn1)C2=O,4.249
CC(C)n1ccc(CN2CCOC(CNc3cccnn3)C2)n1 (stereo not shown),-4.997
CCc1nn(C)c2[nH]nc(NC(=O)c3cccnc3OC)c12,-12.09
O=C(O)C(F)(F)F.O=C(O)C(F)(F)F.[H][C@@]12OCCN(Cc3cc(C)on3)[C@@]1([H])CC[C@H]2OCc1cccc(C)n1,11.98
O=C(NCCc1nnc2n1CCC2)NCC1(c2ccc(F)cc2)CC1,6.966
Cc1noc(C2CCC3(CCN(C(=O)c4ccn(C)n4)CC3)O2)n1 (stereo not shown),-32.84
COc1ccc(-c2nccnc2C2CCN(C(C)=O)CC2)cc1,-4.229
Cc1cc(NC(C)c2csc(C)n2)n2nc(C)c(C)c2n1 (stereo not shown),-3.256
CCOc1ccccc1CNC(=O)N1CCC(Cc2cnn(C)c2)C1 (stereo not shown),9.754
COCCC(=O)NCCCOC1CCCc2ccccc21 (stereo not shown),-4.865
CC(c1cc(F)ccc1F)N(C)Cc1nc2c(cnn2C)c(=O)[nH]1 (stereo not shown),10.31
CCN(CC)CCNC(=O)CCc1c(C)nn(-c2ccccc2Br)c1C,-16.59
CN1CCC(N(CCc2ccccc2)C(=O)c2ccc(C#N)cc2)CC1,-10.05
COc1ccc(F)cc1NC(=O)NCC1(CN2CCOCC2)CC1,0.1827 and -1.348
Cc1cc(C)cc(N2CCN(Cc3cccnc3)CC2=O)c1,-9.848
Cn1ncc(C(=O)N2CCN(S(C)(=O)=O)CC2)c1Cl,-26.92
CN1CCC(N(C)C(=O)c2cnc3c(cnn3C3CCCC3)c2)CC1,-11.39
O=C(NCCC(=O)N1CCCCCC1)c1c(O)cc(F)cc1F,24.24
CCCn1nc(C)c2c(C(F)F)cc(=O)n(CC(=O)O)c21,7.199
CCOCCN1CCN(Cc2nnc(C3CC3)o2)CC1CC (stereo not shown),-15.23
Cl.Cn1ccnc1C1(O)CCN(C(=O)CCc2ccccc2)CC1,-9.982 and 6.51
NC(=O)CN1CCC(NCc2cc(C(F)(F)F)ccc2Cl)CC1,11.01
CCOC(=O)N1CCC(N2Cc3ncccc3C2=O)CC1,20.2
CCCN1CCc2nc(N3CCOCC3)nc(NC(C)C)c2C1,1.974 and -11.97
O=C(NCC(F)(F)F)C1CN(C(=O)c2cnccn2)C1,4.86
CCNC(=O)C(C)NC(=O)Nc1ccccc1Cl (stereo not shown),-11.64
CCn1cc(NC(=O)C(C)n2ncc(Cl)c2C)c(C(=O)OC)n1 (stereo not shown),7.083
CC(C)NC(=O)C1CN(Cc2ccsc2)Cc2ccnn2C1.O=C(O)C(F)(F)F.O=C(O)C(F)(F)F (stereo not shown),22.43
Cc1nc(Cn2nc(C3CCNCC3)n(Cc3ccccc3)c2=O)no1,22.1
Cc1ccc(CC(=O)N2CCCN(Cc3nccn3C)CC2)cn1,-8.859
CCC(=O)NCC(=O)Nc1ncc(I)cc1C,-18.46
Cc1cc(N2CCN(C3CCSCC3)CC2)n2nc(C)c(C)c2n1,1.337 and 6.19
CCCc1noc(CN2CCC(NC(=O)c3ccc(C)s3)CC2)n1,5.093
COc1ccc(CN(C)C(=O)NC(C)c2nncn2C)cc1F (stereo not shown),-20.96
Cc1ccc(CC(=O)N2CCCC(n3nc(C)cc3C)C2)cn1 (stereo not shown),6.312
CS(=O)(=O)Nc1ccn(Cc2cccc(F)c2)n1,9.748
C=C(C)COc1ccccc1C(=O)NCCc1nncn1C,-18.64
CCC(NC(=O)C1CCN(S(C)(=O)=O)CC1)c1ccc(C)c(C)c1 (stereo not shown),1.979
Cc1nc(C)c(C)c(N2C[C@@H](CN3CCCN(C)CC3)[C@@H](CO)C2)n1,0.001985
CCc1cc(=O)n(CC(=O)N2CCC(C)CC2)c(-c2cccc(F)c2)n1,6.116
CCc1noc(CN(CC)Cc2cc3cc(C)ccc3[nH]c2=O)n1,9.753